PubChem BioAssay AID1159596, NIAID, 2016
In all, the deposit lists 756 reagents; below is an unselected part. 143 of all reagents (19%) count as active. 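Active means the reporter moved past about ±1.5 in either direction; scores are per single siRNA, not per gene; peptidoglycan dose not given.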 The numbers tell different reagents against one gene apart. The record does not give: the amount of reagent.

- Screen: 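Genes whose silencing alters the TNF reporter response of macrophage-like cells to peptidoglycan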 (primary screen)
- Cells: human THP1 B5 monocytic reporter cells made macrophage-like with PMA
- Reagent: single siRNA against human genes
- Time to read-out: assayed 48 to 72 hours after siRNA transfection; peptidoglycan stimulation lasted 4 hours
- Treatment: Staphylococcus aureus peptidoglycan for 4 hours; dose not given
- Measured: 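TNF-alpha promoter firefly/renilla luciferase ratio after 4 h s. aureus peptidoglycan; plate median/MAD scaled, robust z versus negative control wells, mean of replicates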
- Direction: TNF reporter z-score: higher = stronger TNF promoter reporter response to peptidoglycan
- Hit rule: In these data the active calls have TNF reporter z-score, replicate mean at about -1.5 or lower, or at about 1.5 or higher
- Meaning of the calls: active = reporter shifted beyond cut (either direction); inactive = reporter near control level

no.	gene knocked down	siRNA no.	TNF reporter z-score, replicate mean	activity call
1	TNF	1	-1.06	inactive
2	TNF	2	-0.804	inactive
3	TNF	3	-1.87	active
4	TNF	4	0.0282	inactive
5	TNF	5	-1.25	inactive
6	TNF	6	-3.19	active
7	PIK3R2	1	-0.46	inactive
8	PIK3R2	2	-2.28	active
9	PIK3R2	3	-0.0311	inactive
10	PIK3R2	4	-2.25	active
11	PIK3R2	5	-0.132	inactive
12	PIK3R2	6	-0.972	inactive
13	PIK3CA	1	0.0605	inactive
14	PIK3CA	2	-0.512	inactive
15	PIK3CA	3	-2	active
16	PIK3CA	4	0.39	inactive
17	PIK3CA	5	-1.05	inactive
18	PIK3CA	6	0.936	inactive
19	ITGAX	1	-0.871	inactive
20	ITGAX	2	0.549	inactive
21	ITGAX	3	-0.474	inactive
22	ITGAX	4	-1.45	inactive
23	ITGAX	5	-0.857	inactive
24	ITGAX	6	-1.63	active
25	IL1B	1	-0.721	inactive
26	IL1B	2	-0.592	inactive
27	IL1B	3	0.103	inactive
28	IL1B	4	-1.09	inactive
29	IL1B	5	-2.03	active
30	IL1B	6	-0.783	inactive
31	EP300	1	0.349	inactive
32	EP300	2	0.508	inactive
33	EP300	3	0.572	inactive
34	EP300	4	1.12	inactive
35	EP300	5	0.115	inactive
36	EP300	6	0.814	inactive
37	RIPK3	1	-0.0548	inactive
38	RIPK3	2	-0.85	inactive
39	RIPK3	3	0.102	inactive
40	RIPK3	4	-0.464	inactive
41	RIPK3	5	-0.114	inactive
42	RIPK3	6	0.0441	inactive
43	IKBKB	1	0.075	inactive
44	IKBKB	2	0.13	inactive
45	IKBKB	3	0.0633	inactive
46	IKBKB	4	-0.227	inactive
47	IKBKB	5	0.298	inactive
48	IKBKB	6	0.58	inactive
49	TIRAP	1	-4.89	active
50	TIRAP	2	-5.42	active
51	TIRAP	3	-5.83	active
52	TIRAP	4	-0.0224	inactive
53	TIRAP	5	-0.933	inactive
54	TIRAP	6	-5.23	active
55	IFNAR1	1	-0.0613	inactive
56	IFNAR1	2	-1.2	inactive
57	IFNAR1	3	-0.315	inactive
58	IFNAR1	4	-0.632	inactive
59	IFNAR1	5	-0.292	inactive
60	IFNAR1	6	-0.0907	inactive
61	TLR2	1	-3.95	active
62	TLR2	2	-2.68	active
63	TLR2	3	-3.19	active
64	TLR2	4	-2.21	active
65	TLR2	5	-0.845	inactive
66	TLR2	6	-2.61	active
67	MAP2K2	1	0.06	inactive
68	MAP2K2	2	-0.0846	inactive
69	MAP2K2	3	-1.3	inactive
70	MAP2K2	4	-0.106	inactive
71	MAP2K2	5	0.232	inactive
72	MAP2K2	6	0.382	inactive
73	IFNAR2	1	-1.18	inactive
74	IFNAR2	2	-0.863	inactive
75	IFNAR2	3	-1.73	active
76	IFNAR2	4	-1	inactive
77	IFNAR2	5	1.32	inactive
78	IFNAR2	6	-0.738	inactive

9 entries from above, reformatted.
TNF #1
- TNF reporter z-score, replicate mean: -1.06
- activity call: inactive

TNF #2
- TNF reporter z-score, replicate mean: -0.804
- activity call: inactive

TNF #3
- TNF reporter z-score, replicate mean: -1.87
- activity call: active

TNF #4
- TNF reporter z-score, replicate mean: 0.0282
- activity call: inactive

TNF #5
- TNF reporter z-score, replicate mean: -1.25
- activity call: inactive

TNF #6
- TNF reporter z-score, replicate mean: -3.19
- activity call: active

PIK3R2 #1
- TNF reporter z-score, replicate mean: -0.46
- activity call: inactive

PIK3R2 #2
- TNF reporter z-score, replicate mean: -2.28
- activity call: active

PIK3R2 #3
- TNF reporter z-score, replicate mean: -0.0311
- activity call: inactive
